Data: publication PMC9253104
No constants are given. Whether binding was seen depends on the method and setting. In cells and extracts the contact can be indirect. Some entries that bind do so weakly or less than the wild type. Tags and fused reporters may be left off the sequences shown.

Sequences of proteins named here, by UniProt entry; tags and fusion partners are left off.
UniProt Q00944: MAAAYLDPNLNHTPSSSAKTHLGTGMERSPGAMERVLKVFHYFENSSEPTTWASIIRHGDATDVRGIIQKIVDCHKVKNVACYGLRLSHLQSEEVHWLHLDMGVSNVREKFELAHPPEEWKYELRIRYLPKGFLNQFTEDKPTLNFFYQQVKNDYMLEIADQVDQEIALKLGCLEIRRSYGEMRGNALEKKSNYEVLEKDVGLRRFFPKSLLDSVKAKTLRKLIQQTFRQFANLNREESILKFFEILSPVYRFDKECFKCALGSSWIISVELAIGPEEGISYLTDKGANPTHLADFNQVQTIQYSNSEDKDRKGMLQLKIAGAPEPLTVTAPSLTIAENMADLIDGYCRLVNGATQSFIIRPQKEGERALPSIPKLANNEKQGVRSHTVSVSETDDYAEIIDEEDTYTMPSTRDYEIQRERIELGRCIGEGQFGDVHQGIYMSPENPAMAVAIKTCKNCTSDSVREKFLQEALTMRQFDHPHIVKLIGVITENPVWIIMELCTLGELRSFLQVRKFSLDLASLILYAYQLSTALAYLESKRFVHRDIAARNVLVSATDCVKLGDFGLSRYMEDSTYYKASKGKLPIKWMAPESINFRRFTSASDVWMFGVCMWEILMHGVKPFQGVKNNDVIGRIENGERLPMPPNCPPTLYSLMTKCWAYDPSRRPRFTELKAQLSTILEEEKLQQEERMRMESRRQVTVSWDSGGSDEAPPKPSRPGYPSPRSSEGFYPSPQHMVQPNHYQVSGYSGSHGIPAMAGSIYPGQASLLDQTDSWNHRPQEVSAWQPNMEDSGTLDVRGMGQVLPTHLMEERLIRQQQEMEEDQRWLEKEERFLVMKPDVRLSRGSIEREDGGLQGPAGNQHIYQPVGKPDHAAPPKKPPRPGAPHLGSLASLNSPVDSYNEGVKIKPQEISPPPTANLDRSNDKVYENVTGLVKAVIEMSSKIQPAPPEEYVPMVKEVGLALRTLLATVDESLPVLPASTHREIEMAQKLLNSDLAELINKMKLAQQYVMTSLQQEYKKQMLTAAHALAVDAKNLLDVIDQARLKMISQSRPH

Tests used:
[1] = target: T1, GST-Simiate (UniProt Q80ZQ9); assay: pull-down; GST-Simiate or GST on Glutathione sepharose beads with nuclear extracts of HEK293 cells expressing GFP proteins (sucrose gradient centrifugation and ultra sound); Ripa-buffer; Western blot; only the target purified
T1 sequence: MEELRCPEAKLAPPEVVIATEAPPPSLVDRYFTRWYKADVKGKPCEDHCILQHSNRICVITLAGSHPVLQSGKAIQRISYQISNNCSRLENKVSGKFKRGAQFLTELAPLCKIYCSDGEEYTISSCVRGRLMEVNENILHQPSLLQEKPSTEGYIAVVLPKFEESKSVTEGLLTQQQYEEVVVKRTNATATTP

[2] = target: T1, GST-Simiate; assay: pull-down; 50 ug GST-Simiate or GST on Glutathione sepharose beads, incubated over night at 4 °C with the cytosolic fraction of HEK293 cells expressing GFP proteins; Ripa-buffer; three washes; Western blot; only the target purified

With GFP-FAK1 (from UniProt Q00944 1-1053) the binding [1] was “binds” and the binding [2] was “binds”.
